For one molecule, binding results are on record in article PMC6265447, “The bacterial Mre11–Rad50 homolog SbcCD cleaves opposing strands of DNA by two chemically distinct nuclease reactions” (Nucleic Acids Research, 2018).

For this assay, the target named is SbcD^V68D nuclease and capping domain (E. coli) (UniProt P0AG76). The experiment in a line: SEC with right-angle light scattering (RALS); SbcD nuclease and capping domain alone, in the absence of SbcC; both purified.

No constants are given. Whether binding was seen depends on the method and setting.

B1: SbcD^V68D nuclease and capping domain (domain or fragment, UniProt P0AG76 1-340)
chain: MRILHTSDWHLGQNFYSKSREAEHQAFLDWLLETAQTHQVDAIIVAGDVFDTGSPPSYARTLYNRFVDNLQQTGCHLVVLAGNHDSVATLNESRDIMAFLNTTVVASAGHAPQILPRRDGTPGAVLCPIPFLRPRDIITSQAGLNGIEKQQHLLAAITDYYQQHYADACKLRGDQPLPIIATGHLTTVGASKSDAVRDIYIGTLDAFPAQNFPPADYIALGHIHRAQIIGGMEHVRYCGSPIPLSFDECGKSKYVHLVTFSNGKLESVENLNVPVTQPMAVLKGDLASITAQLEQWRDVSQEPPVWLDIEITTDEYLHDIQRKIQALTESLPVEVLLVRR
B1: the binding result is “no binding”.
